Experimental data taken from PubChem BioAssay AID1671190 (National Center for Advancing Translational Sciences (NCATS), 2021).
Values joined by “and” are separate entries in the source; they are usually repeats but may differ in a detail not shown here. Identical values can stand only once. Screen size: about 580,000 compounds; about 6,100 (1.1%) were called active. Inconclusive results, whose numbers are uncertain, are shown with a selection of clear calls. Calls come from the whole dose curve; as a rule, active = well fitted inhibition curve with a large enough effect; inconclusive = small, poorly fitted or top-dose-only effect, or another doubt; inactive = no such curve, though single readings can be large or run the other way. Where the call is inconclusive, the potency comes from a doubtful curve fit.

Sequences of proteins named here, by UniProt entry; tags and fusion partners are left off. A change or cut given only in a name is not applied to a line headed by its entry.
UniProt P18054: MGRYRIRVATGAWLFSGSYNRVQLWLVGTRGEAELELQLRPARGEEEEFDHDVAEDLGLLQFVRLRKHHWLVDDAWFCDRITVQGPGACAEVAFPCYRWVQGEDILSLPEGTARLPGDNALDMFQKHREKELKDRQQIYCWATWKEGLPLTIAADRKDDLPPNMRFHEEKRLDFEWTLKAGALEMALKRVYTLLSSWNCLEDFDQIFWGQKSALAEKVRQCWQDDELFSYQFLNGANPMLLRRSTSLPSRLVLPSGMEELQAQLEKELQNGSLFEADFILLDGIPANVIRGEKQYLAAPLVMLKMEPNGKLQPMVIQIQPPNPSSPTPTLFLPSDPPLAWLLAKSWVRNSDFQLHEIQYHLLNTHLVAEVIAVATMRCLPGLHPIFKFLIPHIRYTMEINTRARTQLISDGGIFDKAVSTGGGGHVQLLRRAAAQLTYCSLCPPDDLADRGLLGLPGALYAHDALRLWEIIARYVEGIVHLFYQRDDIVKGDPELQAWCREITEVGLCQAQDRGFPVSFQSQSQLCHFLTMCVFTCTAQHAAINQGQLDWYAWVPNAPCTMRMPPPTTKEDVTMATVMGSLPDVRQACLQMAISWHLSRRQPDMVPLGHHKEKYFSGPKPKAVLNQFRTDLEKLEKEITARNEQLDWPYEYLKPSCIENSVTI

target: Polyunsaturated fatty acid lipoxygenase ALOX12 (Homo sapiens) (UniProt P18054); test: Primary qHTS assay for inhibitors of human arachidonate 12S-lipoxygenase (ALOX12): Round 2; conditions: purified 12hLO, xylenol orange hydroperoxide absorbance; activity change, negative = inhibition: at 108 µM (top of the series) unless noted
How it was run: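 Purified human 12hLO (150 nM final) in 25 mM Hepes, 0.01% Triton X-100, pH 7.0 was preincubated 15 min at room temperature with compound. Then 40 uM arachidonic acid was added, 30 min. Hydroperoxide was read by Fe-XO absorbance ratio 573/405 nm.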
% is set by controls: 0 for no effect and ±100 for the full control effect; potency is the fitted concentration of half-maximal effect.

Row | Compound | Potency | activity change, negative = inhibition
1 | COCCOCC(=O)N1CCC2(CC1)c1[nH]c3ccccc3c1CCN2C | inactive | 
2 | CCOC(=O)C1=C(C)Nc2nc(SCc3cccc(C)c3)nn2C1c1cccs1 (centres undefined) | inactive | 
3 | O=C(Nc1ccccc1F)c1cc(-c2ccco2)nc2ccccc12 | inconclusive: 39.8 µM [inhibitor, single point] and inconclusive: 39.8 µM [inhibitor, partial curve, poor fit] | 
4 | Cc1cccc(OCC(=O)Nc2cccc(C(=O)Nc3ccccc3C(=O)O)c2)c1C | inconclusive: 50.1 µM [inhibitor, partial curve, poor fit] | 
5 | O=C(CN1CCN(c2cccc(C(F)(F)F)c2)CC1)N(C1CCCC1)C1CCS(=O)(=O)C1 (centres undefined) | inconclusive: 112 µM [inhibitor, single point] | 
6 | Cc1nc(-c2cccc(F)c2)sc1CCNC(=O)Cc1ccc(F)cc1 | inconclusive: 63.1 µM [inhibitor, partial curve, poor fit] | 
7 | Fc1ccc(CNc2nc3ccccc3n3cnnc23)cc1 | inconclusive: 0.199 µM [inhibitor, full curve, poor fit] | 
8 | c1ccc(-c2cn3nc4c(nc3n2)CCCC4)cc1 | inconclusive: 6.31 µM [inhibitor, partial curve, poor fit] | 
9 | COC(=O)CCP(=O)(O)Cc1ccccc1CP(=O)(O)CCC(=O)OC | inconclusive: 31.6 µM [inhibitor, partial curve, poor fit] | 
10 | CC(C)(C)S(=O)(=O)N1C[C@H]2CC/C=C\C/C=C\2[C@@H]1CCO | inactive | 
11 | C/C=C/c1ccc(OCCCCN2CCN(CC)CC2)c(OC)c1 | inconclusive: 0.398 µM [inhibitor, full curve, poor fit] | 
12 | O=C(C[n+]1cc(-c2ccc(Cl)c(Cl)c2)n2c1CCC2)N1c2ccccc2Sc2ccccc21 | inconclusive: 56.2 µM [inhibitor, partial curve, poor fit] | 
13 | COc1ccc2c(c1)O/C(=C\c1cccc(OS(C)(=O)=O)c1)C2=O | inactive | 
14 | COc1ccc2c(CN(C)CCOc3ccc(F)cc3)cc(=O)oc2c1 | inconclusive: 0.355 µM [inhibitor, full curve, poor fit] | 
15 | CCOc1cc(=O)n2c(c1C(=O)Nc1cc(C)ccc1C)CCCC2 | inactive | 
16 | COCCn1c(SCC(=O)c2ccc(Cl)cc2)nnc1-c1ccc(Cl)cc1 | inconclusive: 100 µM [inhibitor, single point] | 
17 | Nc1nc2c(F)cccc2s1 | inactive | 
18 | COc1ccc(C2C3=C(CCCC3=O)Nc3nc(SCc4ccc(C(=O)O)cc4)nn32)cc1OC (centres undefined) | inconclusive: 100 µM [inhibitor, single point] | 
19 | O=C(Nc1ccc(S(=O)(=O)Nc2cnc3ccccc3n2)cc1)c1ccc(F)cc1 | inconclusive: 158 µM [inhibitor, single point] | 
20 | CCCNC(=O)Cc1csc2nc(C)c(-c3cc(C)n(-c4cccc(C)c4C)n3)c(=O)n12 | inconclusive: 3.16 µM [inhibitor, full curve, poor fit] | 
21 | CC(C)c1noc(-c2cccn3c(CNC(=O)C(C)c4ccccc4)nnc23)n1 (centres undefined) | inactive | 
22 | CC(=O)N1CCC2(CCCN(c3cccc(-c4ccccc4)c3)C2)CC1 | inconclusive: 31.6 µM [inhibitor, single point] | 
23 | CC(=O)c1ccc(NC(=O)NC[C@@H]2C=C(C)[C@H](CC(=O)N(C)Cc3cccnc3)C[C@H]2C(C)C)cc1 | inactive | 

Row | Compound | Potency | activity change, negative = inhibition
24 | N#Cc1ccccc1CN1CCC(Cc2nncn2-c2ccccc2)CC1 | inactive | 
25 | O=S(=O)(Cc1ccc(F)cc1)Nc1nc2c(s1)CCCC2 | inactive | 
26 | CCNC(=S)NNC(=O)Nc1ccccc1 | inactive | 
27 | Cc1nc(-c2ccc(S(=O)(=O)Nc3c(C)cccc3C)cc2)co1 | inactive | 
28 | O=C1NCc2ccccc2CC12CCCN2Cc1cccc(O)c1 (centres undefined) | inconclusive: 100 µM [inhibitor, partial curve, poor fit] | 
29 | CCOC(=O)C1=NN(c2ccc(OC)cc2)C(c2ccccc2)CC1=O (centres undefined) | inactive | 
30 | COc1cccc(CNCC(c2ccccc2)c2c[nH]c3ccccc23)c1 (centres undefined) | inconclusive: 0.891 µM [inhibitor, full curve] | 
31 | O=C(NNC(=S)NC(=O)c1cccs1)c1ccc(NC(=O)c2ccccc2)cc1 | inconclusive: 25.1 µM [inhibitor, partial curve, poor fit] | 
32 | CCCCNC(=O)c1onc(CSc2ccc(Cl)cc2)c1C(=O)NCCCC | inconclusive: 50.1 µM [inhibitor, partial curve, poor fit] | 
33 | COc1cc(NC(=O)c2cc3n(n2)CC(c2ccc4c(c2)OCO4)OC3)c(OC)cc1Cl (centres undefined) | inactive | 
34 | COc1ccc(S[C@@H]2C[C@@H](C(=O)Nc3ccc4nccnc4c3)N(C3Cc4ccccc4C3)C2)cc1 | inconclusive: 100 µM [inhibitor, single point] | 
35 | CNc1sc(C(=O)c2ccc(F)cc2)c(N)c1-c1nc2ccccc2s1 | inactive | 
36 | COc1ccc(Cl)cc1C(=O)Nc1c(NC2CCCCC2)c2ccccc2oc1=O | inconclusive: 79.4 µM [inhibitor, single point] | 
37 | Cc1nc(-c2ccc3c(c2)Cc2ccccc2-3)cs1 | inactive | 
38 | O=C1COc2ccc(NCCc3ccccn3)nc2CN1Cc1ccc(C(F)(F)F)cc1 | inactive | 
39 | Cc1ccc(NC(=S)NNS(=O)(=O)c2ccc3ccccc3c2)cc1Cl | active: 39.8 µM | 
40 | Cc1nc2c(OCc3cc(Cl)cc(Cl)c3)cccn2c1N(C)C(=O)CCC1CCCC1 | inconclusive: 126 µM [inhibitor, single point] | 
41 | CCSc1ncc(/C=N/Nc2ccc(Cl)cc2)n1C | inconclusive: 1 µM [inhibitor, full curve, poor fit] | 
42 | CN(C)c1ccc(-c2cncnc2-n2ccnc2)cc1 | active: 39.8 µM | 
43 | Cc1cc(Cl)ccc1-c1nc(NC(C)C)nc2ccsc12 | inactive | 
44 | COc1ccc([C@H]2N[C@]3(CCCN(Cc4ccc(C(F)(F)F)cc4)C3=O)[C@H]3C(=O)N(Cc4ccccc4)C(=O)[C@@H]23)cc1 | inconclusive: 39.8 µM [inhibitor, partial curve, poor fit] | 
45 | COc1ccc(C(=O)NCCCNC(=O)c2cc3ccccc3[nH]2)cc1OC | inconclusive: 112 µM [inhibitor, partial curve, poor fit] | 
46 | COC(=O)c1ccccc1NC(=O)N1CCC[C@@H](O)[C@H](NC(=O)c2ccc(OCCN3CCCC3)cc2)C1 | inconclusive: 89.1 µM [inhibitor, partial curve, poor fit] | 

Row | Compound | Potency | activity change, negative = inhibition
47 | Cc1ccccc1N=C(NO)c1cccnc1 | inconclusive: 56.2 µM [inhibitor, single point] | 
48 | CC(CCc1ccccc1)NC(=O)CN(C)Cc1ccc(F)cc1 (centres undefined) | inactive | 
49 | COc1ccccc1NC(=O)COc1ccc2c(=O)c(-c3ccccc3)c(C)oc2c1 | inactive | 
50 | CCC1CN(C(=O)N2CCC(C(=O)N3CCN(c4ccc(F)cc4)CC3)CC2)c2ccccc2O1 (centres undefined) | inactive | 
51 | Cc1c(C(=O)Nc2ccccc2Br)oc2ccc(S(=O)(=O)N3CCOCC3)cc12 | inconclusive: 112 µM [inhibitor, single point] | 
52 | Cc1ccc(NC(=O)C2CCN(C(=O)c3cnn(-c4ccccc4)c3-n3cccc3)CC2)cc1 | inconclusive: 70.8 µM [inhibitor, partial curve, poor fit] | 
53 | CC(C)C(=O)N(c1ccc2oc(=O)sc2c1)S(=O)(=O)c1ccccc1 | inconclusive: 14.1 µM [inhibitor, partial curve, poor fit] | 
54 | Cc1ccc(Nc2nc(N)nc(CN3CCCCCC3)n2)c(C)c1 | inactive | 
55 | CC(=O)c1cccc(NC(=O)C2(C#N)CCCC2)c1 | inconclusive: 50.1 µM [inhibitor, single point] | 
56 | O=C(Nc1ccccc1)C1CC=CCC1C(=O)OCC1CCCO1 (centres undefined) | inconclusive: 28.2 µM [inhibitor, partial curve, poor fit] | 
57 | NCC(=O)N1Cc2ccccc2CC2(CCN(CC3CCCC3)CC2)C1 |  | inactive: -1.77% [at 6.33 µM]
58 | C=CCNCCCCOc1c(Cl)cc(C)cc1Br | inconclusive: 0.316 µM [inhibitor, full curve, poor fit] | 
59 | CSC1=N/C(=C\c2ccco2)C(=O)S1 | inconclusive: 17.8 µM [inhibitor, partial curve, poor fit] | 
60 | CCOC(=O)C[C@@H]1CCN(C(=O)c2ccccc2)C[C@@H]1CCN1CCC[C@H]1C(N)=O | inconclusive: 44.7 µM [inhibitor, full curve] | 
61 | Cc1ccc(S(=O)(=O)Nc2ccc3nc(-c4cccn4C)[nH]c3c2)cc1 | inconclusive: 0.794 µM [inhibitor, full curve, poor fit] | 
62 | O=C(O)[C@H]1CN[C@H](C(=O)O)C1 | inactive | 
63 | COC(=O)C1CSc2[nH]c(=O)sc2C1c1ccc(OC)c(OC)c1 (centres undefined) | inactive | 
64 | COc1ccc(Cl)cc1C(=O)N1CC(C)CC(C)C1 (centres undefined) | inconclusive: 112 µM [inhibitor, single point] | 
65 | COc1cccc(-c2nc(CCl)cs2)c1OC | inconclusive: 44.7 µM [inhibitor, partial curve, poor fit] | 
66 | C=CCN(C)C(=O)C[C@@H]1c2nc(NC(=O)c3cccc(F)c3)sc2C[C@@H]2[C@](C)(CO)[C@H](O)CC[C@]21C | inconclusive: 15.8 µM [inhibitor, partial curve] | 
67 | COc1ccc(NC(=O)N2CCCC(c3noc(COc4ccccc4)n3)C2)c(C)c1 (centres undefined) | inactive | 
68 | COc1ccc(N/C=C\C(=O)c2ccc(C)cc2)cc1OC | inactive | 
69 | COc1cc(OC)cc(C(=O)NCCN2CCOCC2)c1 | inconclusive: 0.1 µM [inhibitor, full curve, poor fit] | 
